The values that follow come from PMC2965115.

Results are given in words; binding and its absence hold for the method and conditions named. Binding seen in cells or lysates may run through a third protein.

The assay addresses LIN-40::GFP (C. elegans). Put plainly: co-IP; approximatively 1 mg of protein extract from mixed-stage worms with 1 µg of antibodies per reaction; anti-AFP mAb 3E6 for GFP-tagged proteins; immunoprecipitates analysed by Western blot. For orientation: A western blot detects proteins with antibodies after separation by electrophoresis.

B1: MEP-1 (protein, UniProt Q21502 1-870)
chain: MVTADETVLATTTNTTSMSVEPTDPRSAGESSSDSEPDTIEQLKAEQREVMADAANGSEVNGNQENGKEEAASADVEVIEIDDTEESTDPSPDGSDENGDAASTSVPIEEEARKKDEGASEVTVASSEIEQDDDGDVMEITEEPNGKSEDTANGTVTEEVLDEEEPEPSVNGTTEIATEKEPEDSSMPVEQNGKGVKRPVECIELDDDDDDEIQEISTPAPAKKAKIDDVKATSVPEEDNNEQAQKRLLDKLEEYVKEQKDQPSSKSRKVLDTLLGAINAQVQKEPLSVRKLILDKVLVLPNTISFPPSQVCDLLIEHDPEMPLTKVINRMFGEERPKLSDSEKRERAQLKQHNPVPNMTKLLVDIGQDLVQEATYCDIVHAKNLPEVPKNLETYKQVAAQLKPVWETLKRKNEPYKLKMHRCDVCGFQTESKLVMSTHKENLHFTGSKFQCTMCKETDTSEQRMKDHYFETHLVIAKSEEKESKYPCAICEEDFNFKGVREQHYKQCKKDYIRIRNIMMPKQDDHLYINRWLWERPQLDPSILQQQQQAALQQAQQKKQQQLLHQQQAAQAAAAAQLLRKQQLQQQQQQQQARLREQQQAAQFRQVAQLLQQQSAQAQRAQQNQGNVNHNTLIAAMQASLRRGGQQGNSLAVSQLLQKQMAALKSQQGAQQLQAAVNSMRSQNSQKTPTHRSSKLVTTPSHATVGSSSAPTFVCEICDASVQEKEKYLQHLQTTHKQMVGKVLQDMSQGAPLACSRCRDRFWTYEGLERHLVMSHGLVTADLLLKAQKKEDGGRCKTCGKNYAFNMLQHLVADHQVKLCSAEIMYSCDVCAFKCSSYQTLEAHLTSNHPKGDKKTSTPAKKDDCITLDD
Consider B1, for which the binding entry is “no binding”.
